Hit rate of the full screen: of about 340,000 compounds, about 6,200 (1.8%) were called active. This list was built around the results that the source calls inconclusive (neither active nor inactive); the mix of calls is not that of the screen. Calls come from the whole dose curve; as a rule, active = well fitted activation curve with a large enough effect; inconclusive = small, poorly fitted or top-dose-only effect; inactive = no such curve, though single readings can be large or run the other way. Where the call is inconclusive, the potency comes from a doubtful curve fit.
assay: A quantitative high throughput screen for small molecules that induce DNA re-replication in SW480 colon adenocarcinoma cells.; note: nearly all actives have a fitted effect of over 55% in size; for re-replication activation: % of control where 0% means no effect; settings: Hoechst DNA content imaging, 48 h; re-replication activation: at 46.1 µM (top of the series) unless noted
Method in brief: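 Hoechst fluorescence of nuclei (405 nm excitation, 500-530 nm emission) measured by plate-scanning imager after 48 hr compound exposure at 37 C; re-replication scored as increased number of nuclei with elevated intensity.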
Potency is the fitted concentration of half-maximal effect.

Structure (SMILES) | Potency | re-replication activation
Cc1ccc(-c2[nH]c3ccccc3c2C(C[N+](=O)[O-])c2ccco2)cc1 (stereo unspecified) | inconclusive: 16.4 µM [activator, single point] | –
Cn1cc(/C=N/n2cnc3sc4c(c3c2=O)CCCC4)c2ccccc21 | active: 18.4 µM | –
Cc1ccccc1N(CC(=O)NCc1ccco1)C(=O)CNS(=O)(=O)c1ccc(F)cc1 | – | inconclusive: 76.9% [activator]
O=C(O)CC(C(=O)Nc1ccc(Cl)cc1)N1CCCCCC1 (stereo unspecified) | – | inactive: 6.95%
Clc1ccc(-c2n[nH]c3c2CCCC3)cc1 | inconclusive: 29.1 µM [activator, single point] | –
N#C/C(=C\c1cccc(OCC(=O)O)c1)c1nc2ccccc2[nH]1 | – | inconclusive: 88.1% [activator]
O=C1c2ccccc2C(=O)N1Nc1ccccc1 | – | inactive: 3.13%
CCOc1ccc2nc(NC(=O)CSC3=NCCS3)sc2c1 | inconclusive: 23.1 µM [activator, partial curve, poor fit] | –
CCCC(CC)Sc1nc2c([nH]1)c(=S)n(C)c(=O)n2C (stereo unspecified) | inconclusive: 29.1 µM [activator, partial curve, poor fit] | –
Cc1c(C(=O)NCCSCc2c(F)cccc2Cl)cnn1-c1ccc(Cl)cc1 | inconclusive: 11.6 µM [activator, single point] | –
C#CCn1c(-c2cccs2)nc2ccccc21 | inconclusive: 23.1 µM [activator, single point] | –
COc1ccc(CNCC(O)(c2ccccc2)c2ccc(F)cc2)cc1 (stereo unspecified) | inconclusive: 18.4 µM [activator, single point] | –
CC1(CCc2ccccc2)NC(=O)N(Cc2nnc(-c3ccccc3Br)o2)C1=O (stereo unspecified) | – | inactive: 1.16%
O=C1Nc2c(ccc(Cl)c2Cl)C(=O)C1(F)c1ccccc1 (stereo unspecified) | inconclusive: 32.6 µM [activator, single point] | –
Cc1ccccc1NC(=S)N(CCN(C)C)C(C)c1ccccn1 (stereo unspecified) | – | inactive: 3.71%
Cc1cc(OC(=O)c2ccc(S(=O)(=O)N3CCCC3)cc2)c([N+](=O)[O-])c(=O)[nH]1 | inconclusive: 2.31 µM [activator, partial curve, poor fit] | –
Cc1nc(SCC(=O)N2CCN(c3ccccc3)CC2)c2oc3ccccc3c2n1 | – | inactive: -6%
O=C1C(Cc2ccccc2)Nc2ncnc(N3CCCCC3)c2N1Cc1ccc(Cl)cc1 (stereo unspecified) | – | inactive: 24.2%
COc1cccc2c1OCC(C(=O)OCc1cccnc1)=C2 | – | inactive: -2.33%
Cc1ccc(NC(=O)COc2nc(C)cs2)cc1 | – | inactive: 9.95%
Cc1ccc(S(=O)(=O)Oc2ccccc2[N+](=O)[O-])cc1 | – | inactive: 27.8%
O=C(C=Cc1ccccc1)c1cc(Br)ccc1O | inconclusive: 16.4 µM [activator, partial curve, poor fit] | –
CCn1c(=O)[nH]c2cc(C(=O)Nc3cc(C)cc(C)c3)ccc2c1=O | – | inactive: -2.01%

Structure (SMILES) | Potency | re-replication activation
CSc1ccccc1NC(=O)Nc1cccc2ccccc12 | – | inactive: 2.74%
CCOC(=O)C1=C(c2ccc(OC)cc2)C(=O)c2ccccc2C1=O | inconclusive: 29.1 µM [activator, single point] | –
CN(C)CCCn1cnc2c(c1=N)C(c1ccccc1)c1ccc3ccccc3c1O2 (stereo unspecified) | – | inactive: 4.52%
COc1ccccc1CCN1CCCC(CN(C)Cc2ccc(OCCO)cc2)C1 (stereo unspecified) | inconclusive: 6.51 µM [activator, single point] | –
CCOC(=O)c1cc(-c2ccc3c(c2)OCCO3)nc2c1c(C)nn2CCC#N | inconclusive: 18.4 µM [activator, single point] | –
CCOc1ccc(NC(=O)NNC(=O)c2cc3ccccc3cc2O)cc1 | – | inactive: 13.4%
CCc1ccc2[nH]c3nc(SCC(=O)NNC(=O)c4ccc(C(C)(C)C)cc4)nnc3c2c1 | active: 5.8 µM | –
CCN1CCCC1CNC(=O)C1CCN(C(=O)c2cc3sccc3n2Cc2ccc(F)cc2)CC1 (stereo unspecified) | inconclusive: 29.1 µM [activator, partial curve, poor fit] | –
CC(C)(C)c1cc(NCCCn2ccnc2)n2ncc(-c3ccccc3)c2n1 | inconclusive: 29.1 µM [activator, single point] | –
COc1cccc(-c2nn(-c3ccccc3)cc2/C=C\C(=O)c2cccs2)c1 | inconclusive: 20.6 µM [activator, partial curve, poor fit] | –
Cc1c(C)n(C)c2ccc(C(=O)NCCN3CCOCC3)cc12 | – | inactive: -3.92%
COCCNc1nc2sc3c(c2c(=O)n1Cc1ccco1)CCCCC3 | – | inactive: -9.47%
O=C(NCc1ccccn1)c1ccc(=O)oc1 | inconclusive: 5.17 µM [activator, full curve, poor fit] | –
Cc1ccc(/C=N/NC(=O)c2ccc3ccccc3c2)s1 | active: 4.11 µM | –
Cc1c(Cl)cccc1NC(=O)N1CCCC1 | inconclusive: 29.1 µM [activator, single point] | –
CC1(C)C(c2ccccc2)=NC(c2ccccc2)N1O (stereo unspecified) | inconclusive: 20.6 µM [activator, partial curve, poor fit] | –
COc1ccc(-c2csc3nc(-c4cccnc4)nc(Cl)c23)cc1OC | inconclusive: 32.6 µM [activator, partial curve, poor fit] | –
COc1ccccc1NC1=C(NC(C)=O)C(=O)c2ccccc2C1=O | inconclusive: 29.1 µM [activator, single point] | –
CN(C)C(=O)CCc1ccc2c3c([nH]c2c1)[C@]1(C)[C@@H](C(=O)N2CCCCC2)C[C@H](CC(=O)NC(C)(C)C)C(=O)N1CC3 | inconclusive: 0.58 µM [activator, partial curve, poor fit] | –
O=C(COC(=O)Cn1nnc2ccccc21)Nc1ccccc1Br | – | inactive: -3.92%
Cc1ccc(-n2c(=O)c3sccc3n(Cc3cc(=O)n4ccccc4n3)c2=O)cc1 | inconclusive: 1.64 µM [activator, partial curve, poor fit] | –
Cc1nc2ccc(C(=O)N/N=C/c3ccccc3O)cc2[nH]1 | inconclusive: 29.1 µM [activator, single point] | –
COc1ccc(-c2ccc(-c3noc(-c4ccccc4)n3)c(OC)n2)cc1 | inconclusive: 18.4 µM [activator, single point] | –

From PubChem BioAssay AID624297 (National Center for Advancing Translational Sciences (NCATS), 2012)
